Results taken from PMC7068124.
These are yes or no findings as the source states them, for the method shown. Binding seen in cells or lysates may run through a third protein. Some binding calls cover weakened binding; strength is not graded here.

Chains of the proteins cited; added tags and fusions are not shown.
UniProt Q9Y4B6: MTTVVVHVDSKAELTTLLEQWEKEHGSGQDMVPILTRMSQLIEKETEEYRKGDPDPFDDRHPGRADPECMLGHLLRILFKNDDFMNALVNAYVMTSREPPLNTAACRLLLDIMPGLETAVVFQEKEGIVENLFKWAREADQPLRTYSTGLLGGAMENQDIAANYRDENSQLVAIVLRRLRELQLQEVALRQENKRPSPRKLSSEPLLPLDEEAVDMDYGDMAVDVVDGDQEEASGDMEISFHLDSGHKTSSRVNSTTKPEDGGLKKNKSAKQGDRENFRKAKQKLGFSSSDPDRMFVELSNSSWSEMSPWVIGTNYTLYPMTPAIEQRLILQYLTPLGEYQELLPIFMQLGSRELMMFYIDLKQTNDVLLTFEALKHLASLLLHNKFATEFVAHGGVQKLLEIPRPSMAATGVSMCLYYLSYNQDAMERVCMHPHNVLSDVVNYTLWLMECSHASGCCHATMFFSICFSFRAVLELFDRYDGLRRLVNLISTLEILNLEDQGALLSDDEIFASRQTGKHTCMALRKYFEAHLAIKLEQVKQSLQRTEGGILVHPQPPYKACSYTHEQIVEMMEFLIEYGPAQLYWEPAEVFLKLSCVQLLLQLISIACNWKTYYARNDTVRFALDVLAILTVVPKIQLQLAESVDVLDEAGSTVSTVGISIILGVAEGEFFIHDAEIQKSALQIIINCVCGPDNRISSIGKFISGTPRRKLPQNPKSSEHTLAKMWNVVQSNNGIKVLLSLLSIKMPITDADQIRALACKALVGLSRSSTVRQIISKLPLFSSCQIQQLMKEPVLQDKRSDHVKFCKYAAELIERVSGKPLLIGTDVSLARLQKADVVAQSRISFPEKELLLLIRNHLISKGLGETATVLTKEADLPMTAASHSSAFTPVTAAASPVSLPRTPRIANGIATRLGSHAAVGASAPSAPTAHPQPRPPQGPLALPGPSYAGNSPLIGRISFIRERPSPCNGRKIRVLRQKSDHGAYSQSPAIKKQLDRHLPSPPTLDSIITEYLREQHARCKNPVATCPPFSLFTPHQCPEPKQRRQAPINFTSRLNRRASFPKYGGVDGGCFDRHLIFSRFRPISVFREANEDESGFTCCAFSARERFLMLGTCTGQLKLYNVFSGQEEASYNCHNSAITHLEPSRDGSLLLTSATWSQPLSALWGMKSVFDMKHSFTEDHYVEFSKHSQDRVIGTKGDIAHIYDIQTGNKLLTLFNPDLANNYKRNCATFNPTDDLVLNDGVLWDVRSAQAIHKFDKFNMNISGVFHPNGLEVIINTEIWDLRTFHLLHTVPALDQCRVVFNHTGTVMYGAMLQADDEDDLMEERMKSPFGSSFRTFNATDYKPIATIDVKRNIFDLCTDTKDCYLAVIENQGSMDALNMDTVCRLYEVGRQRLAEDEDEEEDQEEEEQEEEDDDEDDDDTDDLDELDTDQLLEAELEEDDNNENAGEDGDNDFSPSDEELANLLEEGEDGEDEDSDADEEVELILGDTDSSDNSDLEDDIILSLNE

Molecular target: T1, Nuclear factor erythroid 2-related factor 2 (NRF2) (human (endogenous in Beas-2B)) (UniProt Q16236)
T1 sequence: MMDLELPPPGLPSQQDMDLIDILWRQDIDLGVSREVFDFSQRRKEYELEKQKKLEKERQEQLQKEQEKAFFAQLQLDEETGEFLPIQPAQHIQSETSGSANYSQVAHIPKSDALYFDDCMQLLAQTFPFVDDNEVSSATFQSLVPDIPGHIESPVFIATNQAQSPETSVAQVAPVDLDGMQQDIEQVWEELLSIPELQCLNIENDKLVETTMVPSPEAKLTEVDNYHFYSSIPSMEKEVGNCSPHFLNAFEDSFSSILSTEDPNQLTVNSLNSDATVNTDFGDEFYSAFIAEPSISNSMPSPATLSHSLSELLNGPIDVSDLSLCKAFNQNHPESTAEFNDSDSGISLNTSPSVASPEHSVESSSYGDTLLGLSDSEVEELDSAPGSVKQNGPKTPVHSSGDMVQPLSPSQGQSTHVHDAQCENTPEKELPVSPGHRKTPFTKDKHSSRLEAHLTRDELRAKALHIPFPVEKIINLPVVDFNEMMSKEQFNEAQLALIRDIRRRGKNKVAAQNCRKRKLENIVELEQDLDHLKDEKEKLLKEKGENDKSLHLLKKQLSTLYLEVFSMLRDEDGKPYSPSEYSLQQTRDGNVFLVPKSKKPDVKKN
Assay: co-IP; cells lysed in IP buffer (0.25% Triton X-100 in 1x PBS, protease inhibitors); antibody 1:100 for 2 h at 25°C, protein A/G magnetic beads 1 h, two washes, immunoblot; IP for NRF2 and IB for DCAF1 in Beas-2B cells, also after treatment with increasing concentrations of BC-1901S (less DCAF1 detected after NRF2 IP)

## DDB1 and CUL4 Associated Factor 1 (DCAF1) (from UniProt Q9Y4B6 1-1507)
  binding: binds
